Assay results as given in patent US4144236A (priority 1973, dated 1979).
Like-named read-outs stand apart in the source and are kept apart here.

Tests used:
[1] = in vivo; conditions: rat, sc
[2] = system: Longitudinal muscle preparate (guinea pig); assay: Longitudinal muscle preparate (guinea pig; Paton and Vizi)
Description: ^++++ Paton,W.D.M. and Vizi,E.S.:Br.J.Pharmac. 35, 10 (1969)

[3] = system: electrical stimulation induced coughing; assay: Anti-tussive activity: electrical stimulation (superior laryngeal nerve) induced coughing in cats (method of Domenjoz); format: in vivo; conditions: i.v.
Protocol: Anti-tussive activity in cats was determined by the method of Domenjoz. Cats weighing 2.5 to 3.5 kg were anesthetized with an i.p. dose of 30 mg per kg of sodium pentobarbitone. […] The cough responses were measured by means of a Marey-tambour connected to a face mask and recorded on a smoked paper. Drugs were given intravenously in increasing doses. The effect of each dose was measured on at least five cats. The effects of the drug was calculated from the changes of amplitude of cough curves. If no coughing was produced by two successive stimulations, the dose was taken as the effective anti-tussive dose (AtD100). The anti-tussive dose (AtD50) which reduces the control response by 50% was calculated by the method of Litchfield and Wilcoxon.

[4] = system: citric acid aerosol induced cough; format: in vivo, Wistar rats; conditions: rats; for AtD50: limits in brackets
Protocol: The anti-tussive activity in rats was tested by the method of Gosswald. Wistar rats weighing 130 to 180 g were placed in a plexi box (23 × 22 × 11 cm) and cough responses were elicited by citric acid aerosol (10%). The latency period of cough was measured before and after drug administration. The control latency was determined 18 hours before the drug administration. Animals with less than 60 second control latency were used for the experiments. […] Each animal was exposed to citric acid aerosol for a period of 3 minutes 30 seconds and 60 minutes after drug administration. […]. Ten animals were used at each dose level. The anti-tussive dose (AtD50) was calculated according to Litchfield and Wilcoxon. The drugs were administered by subcutaneous and oral routes.

CN1CC[C@]23c4c5ccc(O)c4O[C@H]2[C@@H](O)C=C[C@H]3[C@H]1C5 [Morphine]
LD50 [1]: 310 mg/kg | Longitudinal muscle preparate (guinea pig) LD50 [2]: 46.0 mg/kg | Ratio codeine/drug (AtD50) [3]: 2.38 | Ratio codeine/drug (AtD50) ([4]; oral): 1.35 | AtD50 ([4]; oral): 74.0 (51.03-107.30) mg/kg oral | Ratio codeine/drug (AtD50) ([4]; s.c.): 6.33 | AtD50 ([4]; s.c.): 3.00 (1.84-4.25) mg/kg s.c.
